# Experimental data from publication PMC9065627.
# Chains of the proteins cited; added tags and fusions are not shown. Lines headed by an entry give the natural chain unless they say otherwise; changes in a name come on top.
# UniProt P18242: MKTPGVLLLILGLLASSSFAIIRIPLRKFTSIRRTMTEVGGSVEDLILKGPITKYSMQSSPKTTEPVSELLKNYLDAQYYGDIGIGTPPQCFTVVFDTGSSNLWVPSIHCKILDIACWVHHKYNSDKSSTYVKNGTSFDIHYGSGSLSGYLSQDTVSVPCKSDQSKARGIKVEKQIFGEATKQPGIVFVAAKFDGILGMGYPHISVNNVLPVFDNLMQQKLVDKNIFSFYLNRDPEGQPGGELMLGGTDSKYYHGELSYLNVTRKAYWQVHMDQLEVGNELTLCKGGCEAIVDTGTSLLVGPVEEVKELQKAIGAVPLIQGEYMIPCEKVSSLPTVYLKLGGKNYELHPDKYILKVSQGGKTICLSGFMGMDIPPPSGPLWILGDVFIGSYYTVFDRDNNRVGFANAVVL
# Results are given in words; binding and its absence hold for the method and conditions named. For part of these data: In cells and extracts the contact can be indirect. Some entries that bind do so weakly or less than the wild type. For part of these data: Sequences can lack the tags named with a protein.
# How the values were obtained:
# [1] = target: endogenous adenosine A2A receptor (A2AR) of RAW 264.7 cells (mouse (endogenous in RAW 264.7)) (UniProt Q60613); experiment: co-IP; endogenous proteins in RAW 264.7 lysate; IP with 8.5 μg anti-A2AR antibody and Protein G magnetic beads; blot with anti-CtsD; control without antibody; cells untreated or treated with LPS, CGS21680 or aspartyl protease inhibitor (Pepstatin A penetratin)
# [2] = target: T1, cMyc-A2AR^284–410 (C terminus of mouse A2AR tagged with the cMyc epitope) (mouse) (UniProt Q60613); experiment: co-IP; RAW 264.7 cells transfected with pCMV-cMyc-A2AR^284–410; lysate in RIPA/PBS; IP with anti-cMyc antibody and Protein G magnetic beads, 4 °C overnight; blot with anti-CtsD; isotype IgG1 as control
# T1 sequence: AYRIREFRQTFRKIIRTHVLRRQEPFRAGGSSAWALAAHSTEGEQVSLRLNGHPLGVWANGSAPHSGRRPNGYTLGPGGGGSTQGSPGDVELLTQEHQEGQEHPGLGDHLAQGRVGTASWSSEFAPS
# [3] = target: T2, GST-A2AR^284–410 (C terminus of mouse A2AR as a glutathione-S-transferase fusion protein) (mouse) (UniProt Q60613); experiment: pull-down; GST or GST-A2AR^284–410 held on MagneGST beads, incubated with 145 μg IPMΦ cell lysate in RIPA buffer for 2 h at 4 °C; blot with anti-CtsD; only the target purified
# T2 sequence: T1 sequence
# [4] = target: T3, GAL4 DNA-BD-cMyc-A2AR^284–410 (C-terminal tail of mouse adenosine A2A receptor, two-hybrid bait) (mouse) (UniProt Q60613); experiment: two-hybrid; pairwise retransformation of Y2H Gold with pGBKT7-A2AR^284–410 and pGADT7-CtsD^321–410, four independent colonies; SD/Leu- Trp- Ade- His- with Aureobasidin and X-α-Gal
# T3 sequence: T1 sequence
# [5] = target: T3, GAL4 DNA-BD-cMyc-A2AR^284–410 (C-terminal tail of mouse adenosine A2A receptor, two-hybrid bait) (mouse); experiment: two-hybrid; library screen by mating: bait BD-cMyc-A2AR^284–410 in Y2H Gold, prey mouse IPMΦ cDNA library (pGADT7-Rec) in Y187; diploids selected on SD/-Leu/-Trp then SD/-Ade/-His/-Leu/-Trp with X-alpha-Gal and Aureobasidin A
substance,measurement,setting,value
"intermediate CtsD (intermediate single-chain form of cathepsin D), endogenous in RAW 264.7 cells (from UniProt P18242 65-410) (enzyme)",binding,[1],binds
same,binding,[2],binds
"intermediate CtsD (intermediate single-chain form of cathepsin D), endogenous in mouse peritoneal macrophages (IPMΦ) (from UniProt P18242 65-410) (enzyme)",binding,[3],binds
"pro-CtsD (proform of cathepsin D), endogenous in mouse peritoneal macrophages (IPMΦ) (from UniProt P18242 21-410) (enzyme)",binding,[3],binds
"Gal4 AD-CtsD^321–410 (cathepsin D C-terminal fragment, two-hybrid prey) (from UniProt P18242 321-410) (domain or fragment)",binding,[4],binds
same,binding,[5],binds
"pro-CtsD (proform of cathepsin D), endogenous in RAW 264.7 cells (from UniProt P18242 21-410) (enzyme)",binding,[2],binds
"Gal4 AD-CtsD AA295–410 (cathepsin D fragment, two-hybrid prey clone) (from UniProt P18242 295-410) (domain or fragment)",binding,[5],binds
"Gal4 AD-CtsD AA273–410 (cathepsin D fragment, two-hybrid prey clone) (from UniProt P18242 273-410) (domain or fragment)",binding,[5],binds
